We go through seven molecules from PMC9691929.

The chains behind the UniProt entries cited, without tags or fusion partners. Where a name states a change or a piece, a line headed by the entry shows the natural chain unless it says otherwise.
UniProt Q8NHS0: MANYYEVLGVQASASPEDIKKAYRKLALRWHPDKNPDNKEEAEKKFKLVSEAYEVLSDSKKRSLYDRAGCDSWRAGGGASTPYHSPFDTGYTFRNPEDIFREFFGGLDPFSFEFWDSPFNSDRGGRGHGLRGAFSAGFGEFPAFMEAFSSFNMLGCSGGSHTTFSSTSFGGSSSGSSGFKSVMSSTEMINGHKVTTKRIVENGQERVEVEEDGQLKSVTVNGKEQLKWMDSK
UniProt P35579: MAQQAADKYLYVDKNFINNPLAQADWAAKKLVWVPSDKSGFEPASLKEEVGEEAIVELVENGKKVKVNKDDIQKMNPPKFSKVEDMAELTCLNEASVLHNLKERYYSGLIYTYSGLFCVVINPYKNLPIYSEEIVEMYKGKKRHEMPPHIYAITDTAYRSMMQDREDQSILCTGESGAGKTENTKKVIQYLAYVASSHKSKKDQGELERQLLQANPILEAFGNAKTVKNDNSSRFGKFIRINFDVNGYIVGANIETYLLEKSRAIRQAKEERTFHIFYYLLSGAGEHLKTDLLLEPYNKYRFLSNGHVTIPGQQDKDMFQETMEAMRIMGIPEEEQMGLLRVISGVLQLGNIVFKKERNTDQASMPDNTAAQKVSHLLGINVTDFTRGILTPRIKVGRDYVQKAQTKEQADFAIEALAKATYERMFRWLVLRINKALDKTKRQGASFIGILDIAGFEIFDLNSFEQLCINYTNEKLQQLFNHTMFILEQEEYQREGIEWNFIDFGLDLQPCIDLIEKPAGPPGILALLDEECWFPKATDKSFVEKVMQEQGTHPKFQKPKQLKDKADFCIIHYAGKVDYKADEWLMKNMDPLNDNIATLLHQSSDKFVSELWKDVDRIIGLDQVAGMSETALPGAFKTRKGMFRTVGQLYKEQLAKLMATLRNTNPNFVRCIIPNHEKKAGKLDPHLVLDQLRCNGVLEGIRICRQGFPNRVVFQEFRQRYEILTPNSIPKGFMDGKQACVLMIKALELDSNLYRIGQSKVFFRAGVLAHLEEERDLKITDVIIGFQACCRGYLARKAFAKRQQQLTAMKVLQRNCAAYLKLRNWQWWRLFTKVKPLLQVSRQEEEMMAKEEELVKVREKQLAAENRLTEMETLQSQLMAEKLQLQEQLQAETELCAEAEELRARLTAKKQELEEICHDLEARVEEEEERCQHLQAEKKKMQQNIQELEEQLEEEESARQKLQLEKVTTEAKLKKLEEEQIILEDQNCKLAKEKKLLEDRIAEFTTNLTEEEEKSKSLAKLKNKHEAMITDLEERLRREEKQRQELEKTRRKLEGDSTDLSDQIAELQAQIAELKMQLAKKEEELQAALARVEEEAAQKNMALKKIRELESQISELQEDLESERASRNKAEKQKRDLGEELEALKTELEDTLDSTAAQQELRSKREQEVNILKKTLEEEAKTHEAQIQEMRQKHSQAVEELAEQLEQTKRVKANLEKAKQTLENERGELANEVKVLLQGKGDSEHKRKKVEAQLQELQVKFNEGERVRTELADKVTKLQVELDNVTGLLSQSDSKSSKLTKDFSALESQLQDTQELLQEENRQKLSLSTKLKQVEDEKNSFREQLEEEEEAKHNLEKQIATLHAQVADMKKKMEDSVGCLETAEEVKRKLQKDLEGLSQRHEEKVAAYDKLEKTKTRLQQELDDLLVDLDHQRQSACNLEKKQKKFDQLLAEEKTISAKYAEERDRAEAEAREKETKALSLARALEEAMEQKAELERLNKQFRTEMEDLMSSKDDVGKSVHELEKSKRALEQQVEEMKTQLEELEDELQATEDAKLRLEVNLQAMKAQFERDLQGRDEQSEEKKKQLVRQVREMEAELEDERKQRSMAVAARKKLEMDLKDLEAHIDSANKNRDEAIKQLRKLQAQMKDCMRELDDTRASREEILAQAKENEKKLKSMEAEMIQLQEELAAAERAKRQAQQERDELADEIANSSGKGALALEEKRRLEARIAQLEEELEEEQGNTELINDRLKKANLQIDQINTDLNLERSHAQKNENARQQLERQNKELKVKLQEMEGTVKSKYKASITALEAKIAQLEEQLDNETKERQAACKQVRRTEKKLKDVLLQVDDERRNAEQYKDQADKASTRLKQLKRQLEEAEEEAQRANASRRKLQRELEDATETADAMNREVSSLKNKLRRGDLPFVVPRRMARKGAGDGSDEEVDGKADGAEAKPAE
UniProt P60660: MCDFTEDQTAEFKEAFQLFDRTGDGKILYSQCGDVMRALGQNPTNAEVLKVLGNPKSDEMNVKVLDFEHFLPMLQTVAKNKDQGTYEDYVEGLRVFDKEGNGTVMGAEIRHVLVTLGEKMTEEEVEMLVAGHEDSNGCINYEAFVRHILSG

Results are given in words; binding and its absence hold for the method and conditions named. In cells and extracts the contact can be indirect. These calls come from enrichment with a bait or labelling near it, and not all partners need be listed. For some of these results: Sequences can lack the tags named with a protein.

The target in one test is Flag-tagged DNAJB8 H31Q (UniProt Q8NHS0). Description: affinity purification with mass spectrometry; Hsp40 affinity profiling: ^FlagDNAJB8^H31Q overexpressed in HEK293T and HSPA13-/- (12F4) cells, 1 uM Tg for 3 h, RIPA lysis, M2 anti-Flag Dynabeads overnight at 4 C, four RIPA washes, TMT-LC-MS; recovery compared between the two cell lines.
Test [1] has as its target T1, Hspa13 with a C-terminal Flag (human) (UniProt P48723).
T1 sequence: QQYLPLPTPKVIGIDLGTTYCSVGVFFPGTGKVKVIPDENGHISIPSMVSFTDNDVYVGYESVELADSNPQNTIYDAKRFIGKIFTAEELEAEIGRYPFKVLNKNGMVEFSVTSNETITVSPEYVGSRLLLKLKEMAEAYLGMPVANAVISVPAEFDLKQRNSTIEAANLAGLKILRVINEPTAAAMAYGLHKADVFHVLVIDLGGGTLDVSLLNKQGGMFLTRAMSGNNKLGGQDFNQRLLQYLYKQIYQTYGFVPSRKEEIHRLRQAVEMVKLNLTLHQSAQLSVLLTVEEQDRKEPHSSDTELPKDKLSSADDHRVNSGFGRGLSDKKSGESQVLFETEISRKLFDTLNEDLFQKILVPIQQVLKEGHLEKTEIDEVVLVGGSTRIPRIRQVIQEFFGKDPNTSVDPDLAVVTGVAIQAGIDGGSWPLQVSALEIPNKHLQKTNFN
The experiment in a line: affinity purification with mass spectrometry; HEK293T overexpressing Hspa13^Flag or mock (eGFP), crosslinked in cells with 1 mM DSP for 30 min, quenched, lysed; M2 anti-Flag Dynabeads; stringent RIPA washes; TMT, MuDPIT; 5% FDR.

The target of test [2] is T2, Hspa13 with a C-terminal Flag (human), P48723.
T2 chain: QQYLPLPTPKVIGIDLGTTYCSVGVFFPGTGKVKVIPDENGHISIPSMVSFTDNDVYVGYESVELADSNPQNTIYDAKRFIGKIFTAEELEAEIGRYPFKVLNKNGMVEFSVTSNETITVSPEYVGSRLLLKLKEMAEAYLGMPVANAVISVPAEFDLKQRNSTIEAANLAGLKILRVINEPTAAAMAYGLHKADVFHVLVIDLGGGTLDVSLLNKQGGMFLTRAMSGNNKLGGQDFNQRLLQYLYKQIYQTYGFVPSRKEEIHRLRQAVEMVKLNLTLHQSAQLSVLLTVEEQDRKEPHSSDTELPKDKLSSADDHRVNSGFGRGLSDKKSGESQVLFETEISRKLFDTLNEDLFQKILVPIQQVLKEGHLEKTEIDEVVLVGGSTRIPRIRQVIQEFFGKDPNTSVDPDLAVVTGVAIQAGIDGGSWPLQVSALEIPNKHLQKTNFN
The description is as above. Conditions: remark: other sources report otherwise.

Regarding MYH9 (from UniProt P35579 1-1960), the binding result with Flag-tagged DNAJB8 H31Q is recorded as “binds”.

MYL6 (from UniProt P60660 1-151): in the test with Flag-tagged DNAJB8 H31Q, the binding result was “binds”.

B1: SEC11C (protein, UniProt Q9BY50 1-192)
chain: MVRAGAVGAHLPASGLDIFGDLKKMNKRQLYYQVLNFAMIVSSALMIWKGLIVLTGSESPIVVVLSGSMEPAFHRGDLLFLTNFREDPIRAGEIVVFKVEGRDIPIVHRVIKVHEKDNGDIKFLTKGDNNEVDDRGLYKEGQNWLEKKDVVGRARGFLPYVGMVTIIMNDYPKFKYALLAVMGAYVLLKRES
As for B1, in test [1], the binding result is given as “binds”.

B2: ZMPSTE24 (protein, UniProt O75844 1-475)
chain: MGMWASLDALWEMPAEKRIFGAVLLFSWTVYLWETFLAQRQRRIYKTTTHVPPELGQIMDSETFEKSRLYQLDKSTFSFWSGLYSETEGTLILLFGGIPYLWRLSGRFCGYAGFGPEYEITQSLVFLLLATLFSALTGLPWSLYNTFVIEEKHGFNQQTLGFFMKDAIKKFVVTQCILLPVSSLLLYIIKIGGDYFFIYAWLFTLVVSLVLVTIYADYIAPLFDKFTPLPEGKLKEEIEVMAKSIDFPLTKVYVVEGSKRSSHSNAYFYGFFKNKRIVLFDTLLEEYSVLNKDIQEDSGMEPRNEEEGNSEEIKAKVKNKKQGCKNEEVLAVLGHELGHWKLGHTVKNIIISQMNSFLCFFLFAVLIGRKELFAAFGFYDSQPTLIGLLIIFQFIFSPYNEVLSFCLTVLSRRFEFQADAFAKKLGKAKDLYSALIKLNKDNLGFPVSDWLFSMWHYSHPPLLERLQALKTMKQH
As to B2, in test [1], the binding entry is given as “binds”.

B3: SRPRB (protein, UniProt Q9Y5M8 1-271)
chain: MASADSRRVADGGGAGGTFQPYLDTLRQELQQTDPTLLSVVVAVLAVLLTLVFWKLIRSRRSSQRAVLLVGLCDSGKTLLFVRLLTGLYRDTQTSITDSCAVYRVNNNRGNSLTLIDLPGHESLRLQFLERFKSSARAIVFVVDSAAFQREVKDVAEFLYQVLIDSMGLKNTPSFLIACNKQDIAMAKSAKLIQQQLEKELNTLRVTRSAAPSTLDSSSTAPAQLGKKGKEFEFSQLPLKVEFLECSAKGGRGDVGSADIQDLEKWLAKIA
Turning to B3, the binding entry in test [1] was “binds”.

B4: PDIA4 (protein, UniProt P13667 21-645)
chain: VAGAEGPDEDSSNRENAIEDEEEEEEEDDDEEEDDLEVKEENGVLVLNDANFDNFVADKDTVLLEFYAPWCGHCKQFAPEYEKIANILKDKDPPIPVAKIDATSASVLASRFDVSGYPTIKILKKGQAVDYEGSRTQEEIVAKVREVSQPDWTPPPEVTLVLTKENFDEVVNDADIILVEFYAPWCGHCKKLAPEYEKAAKELSKRSPPIPLAKVDATAETDLAKRFDVSGYPTLKIFRKGRPYDYNGPREKYGIVDYMIEQSGPPSKEILTLKQVQEFLKDGDDVIIIGVFKGESDPAYQQYQDAANNLREDYKFHHTFSTEIAKFLKVSQGQLVVMQPEKFQSKYEPRSHMMDVQGSTQDSAIKDFVLKYALPLVGHRKVSNDAKRYTRRPLVVVYYSVDFSFDYRAATQFWRSKVLEVAKDFPEYTFAIADEEDYAGEVKDLGLSESGEDVNAAILDESGKKFAMEPEEFDSDTLREFVTAFKKGKLKPVIKSQPVPKNNKGPVKVVVGKTFDSIVMDPKKDVLIEFYAPWCGHCKQLEPVYNSLAKKYKGQKGLVIAKMDATANDVPSDRYKVEGFPTIYFAPSGDKKNPVKFEGGDRDLEHLSKFIEEHATKLSRTKEEL
Regarding B4, the binding entry in test [1] was “binds”.

B5: HYOU1, Q9Y4L1 33-999 (protein)
chain: LAVMSVDLGSESMKVAIVKPGVPMEIVLNKESRRKTPVIVTLKENERFFGDSAASMAIKNPKATLRYFQHLLGKQADNPHVALYQARFPEHELTFDPQRQTVHFQISSQLQFSPEEVLGMVLNYSRSLAEDFAEQPIKDAVITVPVFFNQAERRAVLQAARMAGLKVLQLINDNTATALSYGVFRRKDINTTAQNIMFYDMGSGSTVCTIVTYQMVKTKEAGMQPQLQIRGVGFDRTLGGLEMELRLRERLAGLFNEQRKGQRAKDVRENPRAMAKLLREANRLKTVLSANADHMAQIEGLMDDVDFKAKVTRVEFEELCADLFERVPGPVQQALQSAEMSLDEIEQVILVGGATRVPRVQEVLLKAVGKEELGKNINADEAAAMGAVYQAAALSKAFKVKPFVVRDAVVYPILVEFTREVEEEPGIHSLKHNKRVLFSRMGPYPQRKVITFNRYSHDFNFHINYGDLGFLGPEDLRVFGSQNLTTVKLKGVGDSFKKYPDYESKGIKAHFNLDESGVLSLDRVESVFETLVEDSAEEESTLTKLGNTISSLFGGGTTPDAKENGTDTVQEEEESPAEGSKDEPGEQVELKEEAEAPVEDGSQPPPPEPKGDATPEGEKATEKENGDKSEAQKPSEKAEAGPEGVAPAPEGEKKQKPARKRRMVEEIGVELVVLDLPDLPEDKLAQSVQKLQDLTLRDLEKQEREKAANSLEAFIFETQDKLYQPEYQEVSTEEQREEISGKLSAASTWLEDEGVGATTVMLKEKLAELRKLCQGLFFRVEERKKWPERLSALDNLLNHSSMFLKGARLIPEMDQIFTEVEMTTLEKVINETWAWKNATLAEQAKLPATEKPVLLSKDIEAKMMALDREVQYLLNKAKFTKPRPRPKDKNGTRAEPPLNASASDQGEKVIPPAGQTEDAEPISEPEKVETGSEPGDTEPLELGGPGAEPEQKEQSTGQKRPLKNDEL
As for B5, the binding result in test [2] is given as “binds”.
